Source: PMC5534433
Results are given in words; binding and its absence hold for the method and conditions named. Binding seen in cells or lysates may run through a third protein. These calls come from enrichment with a bait or labelling near it, and not all partners need be listed. Sequences can lack the tags named with a protein.

B1: Ubiquitinated uS10 (40S ribosomal protein) (protein, UniProt P38701 1-121)
chain: MSDFQKEKVEEQEQQQQQIIKIRITLTSTKVKQLENVSSNIVKNAEQHNLVKKGPVRLPTKVLKISTRKTPNGEGSKTWETYEMRIHKRYIDLEAPVQIVKRITQITIEPGVDVEVVVASN
modifications: ubiquitinated (mono- or di-ubiquitinated; ubiquitination sites K6 and K8)
B2: Cue3 (coupling of ubiquitin conjugation to ER degradation 3) / Rqt3 (protein, UniProt P53137 1-624)
chain: MLSRYNRVIEINGGNADISLPIVKFPPFKLRAQLIEKDPVVWLHLIETYVTYFEYLMQGANVELLDESTLDHLRLFLRTYLHEIADEEGKLLSLGINHDVSEQLYLLKGWIFSLIKKCGLLHLQIFGDSLWNLIKVYVRRNPDSIRGLIDGSLKPRINTQRVQLDKSYQVQQHLKQLIESGKFKRIDLRCVEDLLSAKSMQPNKFAENFFTANWIEILEALWAKGQGRGHKEARELIIISLFSVSADRLLKITKELGISNFETLALYPLLGTMLINEGVHKRLPDLKSKLLFLNLGGLSMDEGDHMSYPTSSGTEVNEEQLSALMELFPQFSKYQLSQTLLAYDNNIELVTNKIFEDPTIIEAFSREPAEEEVEPVSDGDNASFTEELSILDRGDSSKNKELDKKIISEGVPDELRNKTLTRALKLLYEADEDERDDTYDEADVNRSDPSKRIGLQEDEESYDTKDDSNEVRQDHNYHIVEAYLWNLLKEDPKLFERSKRGTKVRKTMKEMTSWSDEKIEGWCRMLERSPTRARLLEKKFMFKGNSKTGKTSYVHNRDSQNDGNVVKEQAKQKKSENIKKHEPQSTEQKKRQHAKNEKRKGARANHNRKKGHDKKLARAGNNAI
B3: YKR023W / Rqt4 (protein, UniProt P36119 1-530)
chain: MTRKQAIDYAIKQVPQILPLEESDVKALCEQVLSTSSDDPEQIASKFLEFLGHEDLSFEFVMKFNELLNQNDKKEEKKTKNVHLEHTAPTSWKNESKQPTNNYINKKGDEKPKKLKDEKKSSTTRPTVQPSNQSTQSNPIKEKKEHRSKGKLQSLQEIDEAIKMLELRDSGSSKNCNCQGTRHPVFDIAPNCLHCGKVVCVIEGLNKGKCGHCHEQLISDNERTQMVEILNQEKNELNGSSSSLSNASNGANVPKKKTKTYKITSGMGKNLFAEQDKLFDFIERKRERERKRNEVLKLQEEKEESEAKERQASEHDHKAEENPELLAAQERLDRLLYFQDTSAERTKIIDNASDFDMNQEVGLWGSARERALALKKQQRNLRKWEKVEKERNGRREKYVVSMNIGSNGKVTMTEVPKDTENVIAGSDDDISDISDEEDISDLKHIHALKSEINTTKSLENLHLQSKAWDYERDKKQFDRPTYVKKNSDTAQQNRKTEEKAHDMQAYDLKSRVQVDQNADASVEQNILAVL

molecular target: T1, C-terminal FLAG-TEV-ProtA-tagged Rqt1 (Hel2) (S. cerevisiae) (UniProt Q05580); experiment: affinity purification with mass spectrometry; Rqt1-FTP from yeast lysate on IgG-conjugated Dynabeads, TEV elution; Rqt1-ribosome complex on SDS-PAGE, bands identified by MS; 50 mM Tris pH 7.5, 100 mM NaCl, 10 mM MgCl2, 0.01% NP-40, 1 mM DTT
T1 sequence: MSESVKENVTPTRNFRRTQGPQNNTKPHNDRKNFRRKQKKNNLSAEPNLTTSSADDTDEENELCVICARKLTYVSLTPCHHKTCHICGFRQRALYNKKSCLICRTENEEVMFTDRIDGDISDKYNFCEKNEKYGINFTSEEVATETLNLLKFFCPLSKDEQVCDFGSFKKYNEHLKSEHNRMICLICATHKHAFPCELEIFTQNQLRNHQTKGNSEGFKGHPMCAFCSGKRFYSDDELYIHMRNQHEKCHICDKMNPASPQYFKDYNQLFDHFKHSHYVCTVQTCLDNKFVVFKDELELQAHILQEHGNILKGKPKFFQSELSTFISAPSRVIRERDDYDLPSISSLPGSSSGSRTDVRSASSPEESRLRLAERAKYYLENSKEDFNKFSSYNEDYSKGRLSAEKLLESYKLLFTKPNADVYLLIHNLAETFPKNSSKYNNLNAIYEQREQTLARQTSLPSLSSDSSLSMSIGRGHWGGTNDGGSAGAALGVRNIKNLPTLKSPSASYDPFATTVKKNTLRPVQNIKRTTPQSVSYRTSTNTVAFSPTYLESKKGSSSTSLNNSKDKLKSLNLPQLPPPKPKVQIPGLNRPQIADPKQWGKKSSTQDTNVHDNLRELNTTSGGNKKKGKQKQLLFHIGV

binding, binds:
B1
B2
B3
